Laboratory results taken from the supplement of paper PMC12823440, “Inhibitors supercharge kinase turnover through native proteolytic circuits” (Nature, 2025).
Counter-ions that a name gives are not always drawn. The list shows a part of the results. Hit calls seldom repeat between salt and free forms of one compound.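 Kinases were expressed as nanoluciferase fusions in K562 cells and luminescence was read every 4 h between 2 and 18 h as percent of control, DMSO set to 100% and a positive control to 0%. A time point counts as decreased when the signal drops significantly (2 sigma). The hit call is the authors' own, does not follow from the count of time points alone, and its rule is not shown.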

These molecules were tested against PRKCA (UniProt P17252) (assay: kinase-Nluc reporter destabilization hit call (1 = scored as downregulated) (binary); higher = compound decreases kinase abundance). Conditions: K562; 2-18 h.

kinase-Nluc reporter destabilization hit call, inactive:
Cc1ccc(C2CC(=O)NC(SCC(=O)Nc3nccs3)=C2C#N)cc1 (configuration not stated) [Necrostatin-34] (10 µM) 0
O=CN1CCN(c2ccc(C=C3C(=O)Nc4ccccc43)cc2)CC1 (10 µM) 0
CCCS(=O)(=O)N[C@H]1C[C@@H](N(C)c2ncnc3[nH]ccc23)C1 [Abrocitinib] (10 µM) 0
NC(=O)c1cnc(N[C@@H]2CCCC[C@@H]2N)nc1Nc1cccc(-n2nccn2)c1 (2.5 µM) 0
CS[C@@]1(C(=O)Nc2ccc3[nH]nc(-c4ccc(OC(C)C)nc4)c3c2)CCN(CC(=O)N2CC=C(c3ccc(-c4ncn(C)n4)cc3)CC2)C1 (2.5 µM) 0
Fc1ccc(Cl)cc1-c1nc(Nc2ccncc2)c2nccnc2n1 (10 µM) 0
O=C(Nc1ccccc1C(=O)NC1CCCCNC1=O)c1cc2ccccc2s1 (configuration not stated) (10 µM) 0
O=C(O)c1c[nH]c2cc(Cl)c(-c3ccc(C4(O)CCC4)cc3)cc12 (10 µM) 0
CN(C[C@@H]1COCCO1)S(=O)(=O)Nc1ccc2ccc3ncc(-c4cnn(C)c4)cc3c(=O)c2c1 (2.5 µM) 0
NC(=O)c1ccccc1Nc1ccnc(Nc2cccc(O)c2)n1 (10 µM) 0
Cc1ccc2c(NS(=O)(=O)c3ccccc3Cl)cccc2c1Oc1ncccc1-c1ccnc(N[C@H]2CCCNC2)n1 (2.5 µM) 0
O=C(Nc1ccc(Cl)cc1)C1CN(C(=O)c2cccc(-c3ccco3)c2)CC(F)(F)C1 (configuration not stated) (2.5 µM) 0
COc1ccc(CN2CCC(c3ccc4nc(C(=O)N5CCN(Cc6ccc(C(F)(F)F)cc6)CC5)[nH]c4c3)CC2)cn1 (2.5 µM) 0
CC(C)=CCC[C@](C)(O[C@@H]1O[C@H](CO[C@@H]2O[C@H](CO)[C@@H](O)[C@H](O)[C@H]2O)[C@@H](O)[C@H](O)[C@H]1O)[C@H]1CC[C@]2(C)[C@@H]1[C@H](O)C[C@@H]1[C@@]3(C)CC[C@H](O[C@@H]4O[C@H](CO)[C@@H](O)[C@H](O)[C@H]4O[C@@H]4O[C@H](CO)[C@@H](O)[C@H](O)[C@H]4O)C(C)(C)[C@@H]3CC[C@]12C [Ginsenoside Rb1] (10 µM) 0
COc1cc2ncnc(Nc3cc(Br)c(O)c(Br)c3)c2cc1OC (2.5 µM) 0
CO[C@]1(C(=O)N[C@@H](C)c2ccc(-n3cc(F)cn3)nc2)CC[C@H](c2nc(C)cc(Nc3cc(C)[nH]n3)n2)CC1 [Pralsetinib] (10 µM) 0
CCc1cc(Nc2nccc(-c3c(-c4ccc(OC)c(C(=O)Nc5c(F)cccc5F)c4)nc4ccccn34)n2)c(OC)cc1N1CCC(N2CCN(S(C)(=O)=O)CC2)CC1 (2.5 µM) 0
Cc1nc2c(NCc3cccc(S(C)(=O)=O)c3)nccn2c1-c1ccc(O)c(F)c1 (10 µM) 0
CNC(=O)CN1CCC(Oc2cc3c(Nc4cccc(Cl)c4F)ncnc3cc2OC)CC1 [Sapitinib] (10 µM) 0
COc1ccc(Br)c(C=O)c1O [6-Bromo-2-hydroxy-3-methoxybenzaldehyde] (10 µM) 0
N#C/C(=C/c1ccc(O)c(O)c1)C(=O)N1CCc2ccccc21 [Tyrphostin AG 528] (10 µM) 0
C[C@H](Nc1cc2c(-c3ccc4c(c3)OCO4)noc2cn1)c1ccccc1 (10 µM) 0
CC1(C)CN(C(=O)c2ccc(-c3cccc4nc(NC(=O)C5CC5)nn34)cc2)C1 [Solcitinib] (10 µM) 0
Cc1ccc(NC(=O)N2CCN(c3nc(N)nc4sc(-c5cccnc5)nc34)CC2)cc1 [PI4KIII beta inhibitor 3] (10 µM) 0
COc1ccc(Cl)cc1N(CC(=O)Nc1ccc2c(c1)OCO2)S(=O)(=O)c1ccccc1 (2.5 µM) 0
CN1CCN(c2ccc(-n3cc(-c4ccncc4OCC4CCNCC4)cn3)cc2)CC1 [MELK-8a (hydrochloride)] (10 µM) 0
CC1=CC(=O)C(C(C)C)=C/C1=N/OC(=O)c1ccccc1C [Poloxin] (2.5 µM) 0
O=C(O)/C=C(\CCc1ccc(Cl)cc1)c1ccccc1 (10 µM) 0
CCOC(=O)c1c(C)[nH]c(C=C2C(=O)Nc3ccccc32)c1C (10 µM) 0
O=C(NC[C@H](O)CO)c1ccncc1Nc1ccc(I)cc1F [Pimasertib] (10 µM) 0
O=[N+]([O-])c1ccc(-c2nc(-c3ccc(F)cc3)c(-c3ccncc3)[nH]2)cc1 (10 µM) 0
COc1ccc(CCNCc2ccc(OCc3ccc(Cl)nc3)c(OC)c2)cc1OC [SBE13 (Hydrochloride)] (10 µM) 0

Three compounds from above, ordered by heavy-atom count, rising:
kinase-Nluc reporter destabilization hit call, inactive:
COc1ccc(Br)c(C=O)c1O [6-Bromo-2-hydroxy-3-methoxybenzaldehyde] (10 µM) 0
CC1=CC(=O)C(C(C)C)=C/C1=N/OC(=O)c1ccccc1C [Poloxin] (2.5 µM) 0
CCc1cc(Nc2nccc(-c3c(-c4ccc(OC)c(C(=O)Nc5c(F)cccc5F)c4)nc4ccccn34)n2)c(OC)cc1N1CCC(N2CCN(S(C)(=O)=O)CC2)CC1 (2.5 µM) 0
